Laboratory results: PubChem BioAssay AID1259308 (NCATS, 2017)
Here is a random part of about 59,000 deposited reagents. In the full data, about 1,510 (2.6%) got an active call. 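Calls use total luciferase alone and ignore viability, so some active siRNAs may act by altering cell number.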 The numbers tell different reagents against one gene apart. Further read-outs or replicates are left out here.

- Test: 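Candidate targets for better recombinant protein yield in mammalian cells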 (primary screen)
- Cells: human HEK293 embryonic kidney cells stably expressing firefly luciferase (HEK-CMV-Luc2-Hygro)
- Knock-down reagent: single siRNA against human genes, 0.8 pmol siRNA per well
- Time to read-out: 72 h
- Read-out: 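Luciferase light (ONE-Glo) measured on one replicate plate set and viability (CellTiter-Glo) on the other, scaled to a negative control siRNA, with robust z-scores and luciferase per cell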
- Reading the numbers: total luciferase, z-score and total luciferase, % of control: higher = more reporter protein produced
- Hit rule: 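Active when the median/MAD z-score for overall luciferase is greater than 3; a gene was taken forward for validation with new siRNAs if at least two of its three siRNAs passed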
- Meaning of the calls: active = raised luciferase; inactive = no rise

With knock-down of RPS4Y1 (ribosomal protein S4 Y-linked 1) #1 the results were total luciferase, z-score -2.61; total luciferase, % of control 30; inactive. Against RPS4Y1 (ribosomal protein S4 Y-linked 1) #2, the entry reads total luciferase, z-score 1.01; total luciferase, % of control 102; inactive. For RPS4Y1 (ribosomal protein S4 Y-linked 1) #3, the values are total luciferase, z-score 4.43; total luciferase, % of control 170; active. After knock-down of PRKCA (protein kinase C alpha) #1, the screen gave total luciferase, z-score -0.011; total luciferase, % of control 81.7; inactive. For PRKCA (protein kinase C alpha) #2 the deposit lists total luciferase, z-score -1.24; total luciferase, % of control 57.2; inactive. Silencing of PRKCA (protein kinase C alpha) #3 resulted in: total luciferase, z-score -0.643; total luciferase, % of control 69.1; inactive.

Silencing of TEX56P (testis expressed 56, pseudogene) #1 came out at: total luciferase, z-score 0.687; total luciferase, % of control 95.5; inactive. Silencing of TEX56P (testis expressed 56, pseudogene) #2 came out at: total luciferase, z-score 3.59; total luciferase, % of control 153; active. Silencing of TEX56P (testis expressed 56, pseudogene) #3 gave: total luciferase, z-score -0.552; total luciferase, % of control 70.9; inactive. For PDCD2 (programmed cell death 2) #1, the entry reads total luciferase, z-score -0.71; total luciferase, % of control 67.8; inactive. Knock-down of PDCD2 (programmed cell death 2) #2 resulted in: total luciferase, z-score -1.26; total luciferase, % of control 56.9; inactive. Knock-down of PDCD2 (programmed cell death 2) #3 resulted in: total luciferase, z-score 0.505; total luciferase, % of control 91.9; inactive.

Records listed above called active:
RPS4Y1 (ribosomal protein S4 Y-linked 1) #3 — total luciferase, z-score: 4.43; total luciferase, % of control: 170; activity call: active
TEX56P (testis expressed 56, pseudogene) #2 — total luciferase, z-score: 3.59; total luciferase, % of control: 153; activity call: active
